Measured values published in patent US10137174B2, “Methods and materials for treating cancers that express reduced levels of wild-type p53 polypeptides” (Mayo Foundation for Medical Education and Research, priority 2009, dated 2018).
Structures can show the parent of a compound that is named as a salt. At least one compound was matched to its structure with a doubt left. *1 amine or outer side, *2 acyl side, *3 side chain or, on linkers, in order; H or OH if unused. Where a SMILES comes first, the peptide text is derived from it. CO = O=C([*:1])[*:2]

Protein sequences, listed by entry. Tags and fused reporters are not part of them.
UniProt Q14694, whole entry: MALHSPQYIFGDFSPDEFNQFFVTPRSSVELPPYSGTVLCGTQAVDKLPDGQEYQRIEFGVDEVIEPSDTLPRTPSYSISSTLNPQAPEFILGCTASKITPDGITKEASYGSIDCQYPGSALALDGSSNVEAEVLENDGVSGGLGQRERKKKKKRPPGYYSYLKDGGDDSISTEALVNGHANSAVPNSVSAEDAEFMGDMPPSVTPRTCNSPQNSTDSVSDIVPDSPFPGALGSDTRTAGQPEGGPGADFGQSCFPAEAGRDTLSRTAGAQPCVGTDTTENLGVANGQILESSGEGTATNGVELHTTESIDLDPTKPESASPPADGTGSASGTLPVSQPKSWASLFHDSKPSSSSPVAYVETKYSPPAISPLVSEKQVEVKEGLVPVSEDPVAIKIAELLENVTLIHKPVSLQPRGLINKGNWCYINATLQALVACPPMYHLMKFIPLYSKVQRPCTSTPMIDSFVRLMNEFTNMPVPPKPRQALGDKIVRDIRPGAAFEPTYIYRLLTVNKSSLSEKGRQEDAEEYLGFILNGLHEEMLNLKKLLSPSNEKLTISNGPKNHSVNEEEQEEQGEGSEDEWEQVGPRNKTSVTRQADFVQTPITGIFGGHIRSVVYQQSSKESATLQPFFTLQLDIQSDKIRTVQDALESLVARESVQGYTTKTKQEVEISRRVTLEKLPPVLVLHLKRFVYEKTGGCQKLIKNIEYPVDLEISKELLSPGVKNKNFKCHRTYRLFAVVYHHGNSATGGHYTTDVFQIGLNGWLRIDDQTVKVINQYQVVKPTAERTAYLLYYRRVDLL

Biological target: T1, USP10 polypeptide (Homo sapiens, UniProt Q14694)
T1 construct: His; made in house; host or cells: E. coli BL21 (pET-28a vector)
Assay: Ub-AMC deubiquitination assay with USP10 polypeptide
Assay type: biochemical
Settings: compound 10 μg/mL; USP10 4 μg/mL; Ub-AMC 300 nmol/L; vs DMSO; p<0.01
Procedure: FIG. 17A is a concentration curve graph plotting the level of deubiquitination of Ub-AMC observed following incubation with the indicated amounts of USP10 polypeptide (μg). FIG. 17B is a graph plotting the level of deubiquitination of Ub-AMC in the presence (right) or absence (left) of 4 μg/mL of USP10 polypeptides and the indicated compound.
Briefly, the amount of Ub-AMC deubiquitination in vitro increased as the concentration of USP10 polypeptides increased (FIG. 17A).
N-ethylmaleimide (1 mM), Z-phe-ala fluoromethyl ketone ([…] dihydrochloride (10 μg/mL), E-64 (10 μM), chymostatia ([…] fluoride (40 μM), E-64d (0.5 μM), and cystatin (36 μg/mL) were tested for the ability to inhibit USP10 polypeptide activity using USP10 polypeptide (4 μg/mL) and Ub-AMC (300 nmol/L). Briefly, both enzyme (USP10 polypeptide) and substrate (Ub-AMC) were freshly prepared in USP10 reaction buffer (50 mmol/L Tris-HCl (pH 7.6), 0.5 mmol/L EDTA, 5 mmol/L DTT, 0.01% Triton X-100, and 0.05 mg/mL serum albumin) for each run. Each well (except substrate control wells) in a typical assay contained 4 μg/mL of USP10, the compound, or 2% DMSO. The wells were incubated for 30 minutes to attain equilibrium, and the enzymatic reaction was then initiated by adding the substrate (300 nmol/L of Ub-AMC). […]

## CC(C)[C@H](NC(=O)[C@H](CCCNC(=N)N)NC(=O)N[C@@H](Cc1ccccc1)C(=O)O)C(=O)N[C@H](C=O)CCCNC(=N)N [antipain dihydrochloride] ({Phe-CO}-Arg-Val-Arg-aldehyde)
  deubiquitinating activity of USP10 polypeptides: significantly inhibited
